# Test system: HEK-293T
# Assay: Multiplex assay against HEK293T
# Format: toxicity, cell-based
# Conditions: human
# Outline: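 On a CQ1 microscope at 37°C and 5% CO2, live cells were imaged after compound addition. They had been stained at seeding with Hoechst33342, BioTracker Green Microtubule Cytoskeleton Dye, MitoTracker Red and Annexin V Alexa Fluor 680. CellPathfinder machine-learning gating assigned cells to Hoechst high-intensity objects or normal cells, normal cells to healthy, pyknosed or fragmented nuclei, and pyknosed cells to mitotic or apoptotic. Tubulin, mitochondrial-mass and membrane-permeability phenotypes are per cents of healthy-nucleus cells.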
smiles,measurement,setting,value
Nc1ccc(C(=O)Nc2cccc(-c3nc(N4CCOCC4)c4oc5ncccc5c4n3)c2)cn1,Population Membrane Permeable-Phenotype (%),"0 h, 1 µM, compound concentration 1 uM, replicate 1",4%
same,Population Membrane Permeable-Phenotype (%),"0 h, 1 µM, compound concentration 1 uM, replicate 2",0%
same,Population Membrane Permeable-Phenotype (%),"0 h, 10 µM, compound concentration 10 uM, replicate 1",0%
same,Population Membrane Permeable-Phenotype (%),"0 h, 10 µM, compound concentration 10 uM, replicate 2",1%
same,Population Membrane Permeable-Phenotype (%),"12 h, 1 µM, compound concentration 1 uM, replicate 1",5%
same,Population Membrane Permeable-Phenotype (%),"12 h, 1 µM, compound concentration 1 uM, replicate 2",26%
same,Population Membrane Permeable-Phenotype (%),"12 h, 10 µM, compound concentration 10 uM, replicate 1",17%
same,Population Membrane Permeable-Phenotype (%),"12 h, 10 µM, compound concentration 10 uM, replicate 2",4%
same,Population Membrane Permeable-Phenotype (%),"24 h, 1 µM, compound concentration 1 uM, replicate 1",4%
same,Population Membrane Permeable-Phenotype (%),"24 h, 1 µM, compound concentration 1 uM, replicate 2",15%
same,Population Membrane Permeable-Phenotype (%),"24 h, 10 µM, compound concentration 10 uM, replicate 1",4%
same,Population Membrane Permeable-Phenotype (%),"24 h, 10 µM, compound concentration 10 uM, replicate 2",6%
same,Population Membrane Permeable-Phenotype (%),"48 h, 1 µM, compound concentration 1 uM, replicate 1",4%
same,Population Membrane Permeable-Phenotype (%),"48 h, 1 µM, compound concentration 1 uM, replicate 2",10%
same,Population Membrane Permeable-Phenotype (%),"48 h, 10 µM, compound concentration 10 uM, replicate 1",5%
same,Population Membrane Permeable-Phenotype (%),"48 h, 10 µM, compound concentration 10 uM, replicate 2",11%
